According to paper PMC5155689, “Pro-invasive Effect of Proto-oncogene PBF Is Modulated by an Interaction with Cortactin” (The Journal of Clinical Endocrinology and Metabolism, 2016):
No constants are given. Whether binding was seen depends on the method and setting. Binding seen in cells or lysates may run through a third protein. Some binding calls cover weakened binding; strength is not graded here. Where a sequence is shown, tags or fusion partners need not be part of it.

Sequences of proteins named here, by UniProt entry; tags and fusion partners are left off. A change or cut given only in a name is not applied to a line headed by its entry.
UniProt Q14247, whole entry: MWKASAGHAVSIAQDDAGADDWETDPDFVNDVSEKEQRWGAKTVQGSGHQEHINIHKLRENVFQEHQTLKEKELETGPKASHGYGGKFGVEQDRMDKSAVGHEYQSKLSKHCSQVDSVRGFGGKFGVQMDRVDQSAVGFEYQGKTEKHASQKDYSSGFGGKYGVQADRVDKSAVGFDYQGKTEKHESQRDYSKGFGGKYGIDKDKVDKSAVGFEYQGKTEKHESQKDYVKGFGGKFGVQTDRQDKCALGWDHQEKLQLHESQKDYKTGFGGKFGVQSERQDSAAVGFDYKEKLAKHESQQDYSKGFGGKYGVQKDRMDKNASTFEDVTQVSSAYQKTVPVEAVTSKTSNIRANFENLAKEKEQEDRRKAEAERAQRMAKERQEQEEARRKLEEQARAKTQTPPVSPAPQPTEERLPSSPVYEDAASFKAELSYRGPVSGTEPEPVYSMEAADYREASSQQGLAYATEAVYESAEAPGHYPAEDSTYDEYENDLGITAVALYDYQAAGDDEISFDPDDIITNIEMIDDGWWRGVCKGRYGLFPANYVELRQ

What was measured:
[1] = target: T1, PTTG1-binding factor (PBF/PTTG1IP) with a hemagglutinin (HA) tag, wild type (UniProt P53801); test: co-IP; myc-tagged CTTN and HA-tagged PBF (WT or Y174A) transfected in MCF-7 and HeLa cells; in HeLa also after 50 nM dasatinib or vehicle
T1 sequence: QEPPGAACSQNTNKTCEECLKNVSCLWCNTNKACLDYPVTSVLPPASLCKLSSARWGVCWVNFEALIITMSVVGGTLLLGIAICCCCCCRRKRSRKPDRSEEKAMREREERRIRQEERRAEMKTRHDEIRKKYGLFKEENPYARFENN

[2] = target: T1, PTTG1-binding factor (PBF/PTTG1IP) with a hemagglutinin (HA) tag, wild type; test: proximity ligation; Duolink in situ PLA of PBF-HA (WT or Y174A) and myc-CTTN in transfected MCF-7, MDA-MB-231 and TPC-1 cells; also in cells halted during scratch wound assays

## human Myc-CTTN (cortactin) (from UniProt Q14247 1-550)
[1]
  binding: binds
[2]
  binding: binds
